# Screening data

Source: PubChem BioAssay AID1159506 (NCATS, 2015).

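Luminescence from an EWS-FLI1 target-promoter (NR0B1) reporter, set against a CMV-promoter reporter, two days after silencing single genes in TC32 Ewing sarcoma cells.
Each siRNA was applied at 20 nM.
A z-score of the log NR0B1-over-CMV signal, less the median of siRNAs with the same seed; more negative means a stronger specific loss of the NR0B1 reporter.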

The strongest results of the screen are mostly left out here.
Sequences are the guide (antisense) strand, without overhang.

| siRNA | target gene | seed-corrected z-score |
|---|---|---|
| `UUCUUUCAUUCCUUCAUCG` | CCDC162P | 0.165 |
| `AUCCCUUUCUCUCAGAUGC` | TMEM199 | -0.6788 |
| `UUCUUUAUCUGUGUCCUCG` | CD7 | 0.0996 |
| `AAGGUAUUCAAACCAUUGC` | NXPE3 | 2.112 |
| `UGUUUUUACACUCGUCUCC` | CPM | -0.1828 |
| `UUGAUGCGAACAAAAGUGG` | CLMN | -0.4719 |
| `UUCACUUUUCACAACUUGC` | ARMC1 | -0.07621 |
| `UAUGGGAUGAGGUGUUCUC` | CCIN | 0.03389 |
| `UUGCCUAAAAUAGAUAAGC` | BRWD3 | 0.05456 |
| `UUAUCUUCUUGACCCUGCC` | SNX22 | 0.05687 |
| `UAUUGUCAAGUCUCUAACC` | DARS | -0.08437 |
| `UUCUCAUCUACAGCGGGCA` | APOC2 | 1.02 |
| `UAAGCAUCUGGGUCCAUUU` | TM4SF5 | -0.5853 |
| `UUUCGGCAUGGGAUGAUCC` | KLHL24 | 0.1315 |
| `UUUGUCAGUUGUGCAGCCG` | LYPD5 | -1.127 |
| `UUUUCAUUCAGUGAGAUGA` | CHRNE | 0.2895 |
| `UUAGGUUGCACUAGGCCUC` | LIPM | 0.05692 |
| `UGUCCUUCAGGUAAGGCUG` | PHYHIP | -1.35 |
| `UUCUCGAUUGUCAAUCUUC` | DRC3 | 0.6734 |
| `UUGACUAUCUGCACGUUGC` | ITIH3 | -0.626 |
| `UGAGUACUCAUACUCCUUG` | IL12B | -0.2491 |
| `UCCAUCUCCACCUCAAUCC` | MCM5 | -0.8532 |
| `AAAUAAAUAACUCCACGGU` | CCDC130 | 0.7504 |
| `UGGUAUUCCUGUAUGCUGC` | ATRNL1 | -0.4255 |
| `UUCGGUGUCAUCUCUGAGC` | FAH | -0.02379 |
| `UAUGAACAUAAGAUAUUAC` | OR2A25 | 0.3949 |
| `UUCAGCUUCAUCUUAAGCC` | SPDYE21P | -0.9732 |
| `UAUCUUUUGAGCGAUCCUU` | RNPS1P1 | 0.195 |
| `UAUUGUUUUCGGUCCUGCC` | OTUD3 | 0.007779 |
| `UUCUCAAACUCAAAUGUGG` | PRSS21 | -0.08402 |
| `UACUUUGCUCAUGUCCACC` | SRRM1 | -0.2884 |
| `UUCUGGAUUAACUGGUUUG` | ALK | -0.6433 |
| `UCAGUAUGUUGUUUACUCC` | SPZ1 | -0.06529 |
| `UCUAUUUACAGUGUCUGGG` | EMC10 | 2.22 |
| `UUUGUAAGGAACUCCACCC` | FLJ16734 | 0.5334 |
| `UCAUUGGAGAUUGCUUUUC` | SLC35F4 | -0.6206 |
| `UGAAUGACUUGUAAAACCG` | PRR20A | 0.6204 |
| `UCAAUUACCCGUAUUGUCC` | DYNC1I1 | -0.3974 |
| `AUUCGAGAAACAGUCUUCC` | NEMP1 | 0.5895 |
| `UGGGAUGCCGUCAAACACC` | RPL13AP20 | -0.7682 |
| `UUGCCGUUCUCAUCGUUCC` | AACS | -0.0000993 |
| `AACCAUAGUCCAGAAAUCC` | PIANP | 1.532 |
| `UCUUCUGUGAGGUUGGUGG` | MYH9 | -1.504 |
| `UUCUAGAUAAAUCGUUUCC` | ITGB8 | 0.2341 |
| `UGAAUGGUCGCUGUCACGG` | FIBCD1 | 0.002361 |
| `UGAUGGUGAAGGUUUGGGA` | THAP8 | 1.23 |
| `UAUCUUGAUCUGUAAUUGG` | ZC3H12B | 1.778 |
| `AGAGUCCACAUAGAGAGCC` | PRAME | 1.119 |
| `UUACUUGAGAGGGAUGAAG` | RPS15 | 0.8117 |
| `UUCCCAAUGACCCACAACC` | URB2 | -0.002476 |
| `UUUCGGUUGGUGCAGGAGC` | POM121L9P | 0.6083 |
| `UUCAGUUGGAAAGAUCUCC` | CHML | -0.1212 |
| `UUUUGAUCUUCUUCGAUCC` | LUC7L3 | -1.266 |
| `AUACUUCAUAGUACUGCGC` | TRMT2B | 1.391 |